This note sets out measurements from patent US20060251669A1.

The chains behind the UniProt entries cited, without tags or fusion partners. Where a name states a change or a piece, a line headed by the entry shows the natural chain unless it says otherwise. Residues count along the entry.
Pf MSP1-42, C-terminal fragment of the P. falciparum merozoite surface protein MSP1 (Q8I0U8, residues 1327-1699): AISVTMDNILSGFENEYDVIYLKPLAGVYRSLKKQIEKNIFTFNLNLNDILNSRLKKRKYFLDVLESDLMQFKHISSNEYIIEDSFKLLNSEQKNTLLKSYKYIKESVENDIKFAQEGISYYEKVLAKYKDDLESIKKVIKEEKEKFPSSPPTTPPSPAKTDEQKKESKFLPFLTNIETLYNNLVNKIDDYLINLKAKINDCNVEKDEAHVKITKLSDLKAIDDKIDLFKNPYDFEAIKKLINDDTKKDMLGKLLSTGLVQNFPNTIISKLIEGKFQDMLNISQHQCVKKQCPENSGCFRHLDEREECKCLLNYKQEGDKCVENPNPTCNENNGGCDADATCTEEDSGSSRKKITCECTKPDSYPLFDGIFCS
Pf MSP1-19, C-terminal fragment of the P. falciparum merozoite surface protein MSP1 (Q8I0U8, residues 1607-1699): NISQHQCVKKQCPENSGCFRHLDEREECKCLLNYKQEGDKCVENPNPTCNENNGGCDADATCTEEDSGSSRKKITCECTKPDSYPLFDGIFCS
UniProt B3EWN9: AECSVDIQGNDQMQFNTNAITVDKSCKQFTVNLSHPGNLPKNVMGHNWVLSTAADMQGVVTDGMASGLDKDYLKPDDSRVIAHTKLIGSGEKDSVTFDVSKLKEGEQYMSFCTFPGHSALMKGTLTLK

Test [1] addresses Pf MSP1-19, C-terminal fragment of the P. falciparum merozoite surface protein MSP1 (Plasmodium falciparum) (UniProt Q8I0U8). In words: SPR, MSP1-19 immobilized on CM5. For orientation: Surface plasmon resonance follows binding to a sensor surface in real time, without labels.
Test [2] deals with Pf MSP1-42, C-terminal fragment of the P. falciparum merozoite surface protein MSP1 (Plasmodium falciparum) (UniProt Q8I0U8). Nature of the test: SPR, MSP1-42 immobilized on CM5.

Results are given in words; binding and its absence hold for the method and conditions named. Some binding calls cover weakened binding; strength is not graded here.

“GST-Azu 36-128 (GST fused to azurin amino acids 36 to 128) (from UniProt P00282 56-148)”: the binding entry in test [1] is “binds”.
“GST-Azu 36-89 (GST fused to azurin amino acids 36 to 89) (from UniProt B3EWN9 36-89)”: the binding entry in test [1] is on record as “binds”.
Take “azurin from Pseudomonas aeruginosa (from UniProt P00282 21-148)”: the binding entry in test [2] and in test [1] was “binds” in each case.

B1: Laz from Neisseria gonorrhoeae F62 (protein)
chain: CSQEPAAPAAEATPAGEAPASEAPAAEAAPADAAEAPAAGNCAATVESNDNMQFNTKDIQVSKACKEFTITLKHTGTQPKASMGHNLVIAKAEDMDGVFKDGVGAADTDYVKPDDARVVAHTKLIGGGEESSLTLDPAKLADGDYKFACTFPGHGALMNGKVTLVD
For B1, the binding entry in test [2] and in test [1] was “binds” each time.
